Laboratory results: PubChem BioAssay AID652272 (Drosophila RNAi Screening Center, 2013)
Test: 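Finding fly genes that regulate Hedgehog signal transduction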 (primary screen). Cell system: Drosophila clone 8 (Cl8) cells. Reagents: long dsRNA against Drosophila genes. Measured: 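Plate reader light from a firefly reporter under a ptc promoter fragment that responds to Hedgehog, with Renilla light as transfection reference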. Direction: firefly Hh reporter signal: higher = more ptc reporter light; Renilla reference signal: higher = more Renilla control light. Active means: 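Called a hit if the two-replicate mean z-score lies below -2 or above +3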. Calls: active = hit: reporter lowered or raised; inactive = not a hit.
The screen tested about 21,000 reagents; shown is a random part of those with a known target gene and a result. Of all reagents, 503 (2.4%) are marked active. 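Raw plate light values, not normalised; calls rest on replicate z-scores that were not deposited; hits include reporter decreases as well as increases.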 Entries without a mark were called inactive. Names joined by + are all predicted targets of the reagent. Not given: the amount of reagent, the time to read-out.

Target gene | DRSC id | firefly Hh reporter signal, replicate 1 | firefly Hh reporter signal, replicate 2 | firefly Hh reporter signal, replicate 3 | Renilla reference signal, replicate 1 | Renilla reference signal, replicate 2
Dhc64C | DRSC08656 | 1.39e5 | 56086 | – | 5025 | 2596
Gr10b | DRSC19477 | 92970 | 2.16e5 | – | 3162 | 8269
Jwa | DRSC02048 | 94343 | 81302 | – | 4392 | 3443
Nup58 | DRSC16235 | 5.75e5 | 97260 | – | 29276 | 2618
CG12609 | DRSC19473 | 78900 | 2.25e5 | – | 579 | 8721
Idh3b | DRSC16040 | 1.08e5 | 79363 | – | 4052 | 3341
PH4alphaEFB | DRSC14473 | 99229 | 94098 | – | 1993 | 2987
PH4alphaEFB | DRSC14950 | 69944 | 89460 | – | 2624 | 2374
Sodq | DRSC15924 | 5.32e5 | 1.19e5 | – | 28589 | 2724
Rcd-1 | DRSC19569 | 88858 | 2.27e5 | – | 2667 | 8972
CG11380 | DRSC18632 | 57013 (active) | 41160 | – | 4067 | 1920
CG1835 | DRSC20560 | 65841 | 2.19e5 | – | 2394 | 8600
UQCR-C2 | DRSC10405 | 82957 | – | – | 4432 | 2304
CG8388 | DRSC07157 | 81735 | 49403 | – | 2157 | 3428
AstC | DRSC02403 | 1.55e5 | 69633 | – | 3714 | 6378
CG2685 | DRSC18463 | 1.05e5 (active) | 32372 | – | 7792 | 1584
wtrw | DRSC14241 | 1.38e5 | 57708 | – | 5447 | 2944
wtrw | DRSC15278 | 55959 | 4.10e5 | 83786 | 2384 | 3106
CG43089 | DRSC08060 | 1.01e5 | 1.93e5 | – | 2869 | 7655
slmo + CG34179 | DRSC03143 | 1.38e5 | 83624 | – | 5824 | 3834
pr | DRSC03596 | 1.18e5 | 56234 | – | 4352 | 2355
mago | DRSC04703 | 1.23e5 | 81091 | – | 2426 | 5450
Irbp | DRSC17007 | 73318 | 80041 | – | 2704 | 2132
